Experimental data reported in patent US20260227412A1, “USE OF IFN-I ACTIVITY AS A BIOMARKER FOR TLR INHIBITOR TREATMENT” (MERCK PATENT GMBH, priority 2022, published 2026).
At least one compound was matched to its structure with a doubt left.

Test system: R848 (TLR7 and 8 agonist) stimulated PBMCs
Experiment: R848-induced IL-6 secretion in PBMCs with/without IFN-α pre-treatment (AlphaLISA, Combenefit synergy analysis)
Format: cell-based, human
Settings: IFN-α pre-treated PBMCs, Dex alone compared with Dex in combination with CMPD2

C[C@@H]1C[C@H]2[C@@H]3CCC4=CC(=O)C=C[C@]4(C)[C@@]3(F)[C@@H](O)C[C@]2(C)[C@@]1(O)C(=O)CO [Dex, dexamethasone]
potency at blocking R848-induced IL-6 secretion: less potent
